This is an account of results in patent US20090275497A1, “METHOD FOR IDENTIFYING MODULATORS OF THE ACTIVITY OF ION-CHANNELS RECEPTORS” (CENTRE NATIONAL DE LA RECHERCHE SCIENTIFIQUE (CNRS), priority 2004, published 2009).

The test relates to P2X2 to GABA receptors. As to conditions: electrophysiological techniques; ratio of P2X2 to GABA receptors 1:1.

In the case of `NCCCC(=O)O` [GABA, gamma-Aminobutyric acid], the “current inhibition by GABA of the response mediated by ATP” value is not above 50%.
